Reference: article PMC8881469, “Molecular recognition of formylpeptides and diverse agonists by the formylpeptide receptors FPR1 and FPR2” (Nature Communications, 2022)
These are yes or no findings as the source states them, for the method shown. Some binding calls cover weakened binding; strength is not graded here.

The chains behind the UniProt entries cited, without tags or fusion partners. Residues count along the entry.
UniProt P21462, residues 1-333: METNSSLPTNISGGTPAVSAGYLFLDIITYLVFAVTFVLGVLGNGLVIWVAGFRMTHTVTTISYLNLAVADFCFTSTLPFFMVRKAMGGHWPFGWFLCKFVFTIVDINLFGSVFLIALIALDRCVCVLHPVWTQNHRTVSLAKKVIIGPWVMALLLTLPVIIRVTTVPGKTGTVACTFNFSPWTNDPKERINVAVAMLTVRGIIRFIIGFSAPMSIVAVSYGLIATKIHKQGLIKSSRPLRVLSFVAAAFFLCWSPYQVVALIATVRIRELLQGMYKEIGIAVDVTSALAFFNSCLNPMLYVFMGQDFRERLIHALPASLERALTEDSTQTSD
UniProt P25090, residues 1-342: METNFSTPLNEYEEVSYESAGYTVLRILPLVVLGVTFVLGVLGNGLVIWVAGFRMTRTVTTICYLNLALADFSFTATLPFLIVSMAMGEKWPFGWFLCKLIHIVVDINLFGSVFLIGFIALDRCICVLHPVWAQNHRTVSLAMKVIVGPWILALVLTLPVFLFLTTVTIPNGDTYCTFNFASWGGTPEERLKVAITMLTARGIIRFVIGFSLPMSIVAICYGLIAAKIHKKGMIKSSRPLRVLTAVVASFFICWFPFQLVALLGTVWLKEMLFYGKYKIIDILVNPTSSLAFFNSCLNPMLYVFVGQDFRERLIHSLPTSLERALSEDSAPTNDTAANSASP

How the values were obtained:
[1] = target: human formylpeptide receptor FPR1 (residues 1-333), cryo-EM construct (human) (UniProt P21462); experiment: cryo-EM structure; fMLFII-FPR1-Gi-scFv16 complex; 10 μM fMLFII added to the suspension of Sf9 cells that express FPR1 and Gi, 5 μM kept in all buffers; 3.2 Å; only the binder purified
[2] = target: human formylpeptide receptor FPR2 (residues 1-342), cryo-EM construct (human) (UniProt P25090); experiment: cryo-EM structure; FPR2-Gi-scFv16 complexes; 10 μM fMLFII or 20 μM CGEN-855A added to the suspension of Sf9 cells that express FPR2 and Gi, 5 μM kept in all buffers; 3.1 and 2.9 Å; only the binder purified

B1: fMLFII (peptide)
peptide: MLFII
modifications: N-formyl methionine at the N-terminus (fMet1)
B1 was tested, and the binding [1] was “binds” and the binding [2] was “binds”.
